Measured values published in PubChem BioAssay AID662 (National Center for Advancing Translational Sciences (NCATS), 2007).
The list shows a part of the results. The main result of the screen is listed elsewhere. These columns were measured beside it and carry no call. The list favours compounds with an active or inconclusive main result. Words in brackets tell the shape of the fitted curve; partial curves, single points and poor fits give uncertain potencies.

Assay: Cell signaling CRE-BLA (Fsk stim)
Settings: CHO CRE-bla reporter (cAMP response element driving beta-lactamase), forskolin EC10, beta-lactamase ratio; measured here: 460 nm blue channel
Procedure, shortened: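 Titrated compounds plus EC10 NKH 477 on CHO CRE-bla cells, 3 h, 37 °C. CCF4, 2 h RT. Ratio 460/530 nm → AC50.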

Structure (SMILES) | AC50
O=C(O)[C@@H](O)[C@@H](O)[C@H](O)[C@H](O)CO | 1 µM [falling, single point]
COc1nc(-c2ccccc2)ccc1-c1noc(COc2ccccc2)n1 | 0.00316 µM [falling, full curve, poor fit]
COc1ccc(S(=O)(=O)NCCSCc2ccco2)cc1 | 10 µM [falling, partial curve]
Cc1cc(C(C)(C)C)cc(C)c1CC1=NCCN1 | 5.01 µM [falling, partial curve, poor fit]
Cc1cc(=O)cc(C)n1-c1ccc2c(c1)nc(C)n2-c1ccccc1 | 3.98 µM [falling, single point]
Cc1cc(CC(C)C)n(-c2nc3ccccc3c(=O)n2OCC(=O)N(C)C)n1 | 10 µM [rising, single point]
Cc1cc(NCCCN2CCOCC2)n2nc(C)c(-c3ccc(F)cc3)c2n1 | 0.2 µM [falling, full curve]
COC(=O)c1cc(COc2ccc3ccc(=O)oc3c2)c(C)o1 | 0.00794 µM [falling, full curve, poor fit]
CCn1c(SCC(=O)OC)nc2sc3c(c2c1=O)CCC3 | 12.6 µM [rising, partial curve]
O=C(Nc1ccccc1)Nc1ccc(S(=O)(=O)N2CCCCC2)cc1 | 12.6 µM [falling, single point]
CC1Cc2ccccc2N1Cc1nc2scc(-c3cccs3)c2c(=O)[nH]1 (stereo unspecified) | 7.94 µM [falling, partial curve]
O=C(Nc1ccccc1-c1nc2ccccc2s1)c1ccco1 | 2.51 µM [rising, full curve]
CCOC(=O)c1sc(NC(=O)C2CC2)cc1C | 10 µM [rising, partial curve]
CCCCN1C(=O)/C(=C2\SC(N3CCCCC3)=NC2=O)c2ccccc21 | 10 µM [rising, partial curve]
O=C(O)CCC(=O)CCC(=O)c1ccccc1 | 0.398 µM [falling, full curve, poor fit]
Cc1cc(NS(=O)(=O)c2ccc(NC(=O)CCN3C(=O)c4ccccc4C3=O)cc2)no1 | 25.1 µM [rising, single point]
Cc1ccc(-n2nnnc2SCCNS(=O)(=O)c2ccccc2)cc1C | 1.26 µM [rising, partial curve, poor fit]
O=C(c1cnn2c(C(F)(F)F)cc(-c3ccco3)nc12)N1CCCCCC1 | 12.6 µM [rising, single point]
CCOC(=O)N1CCN(C(=O)c2cc3c(=O)n(C)c4ccccc4c3n2C)CC1 | 7.94 µM [rising, partial curve]
COc1cc(NC(=O)c2ccc(-c3ccc(Br)cc3)o2)ccc1NC(=O)C(C)C | 2.51 µM [rising, full curve]
COc1ccc(N2CCN(C(c3cc(OC)ccc3OC)c3nnnn3Cc3ccco3)CC2)cc1 (stereo unspecified) | 10 µM [rising, single point]
COc1ncc2nc(-c3cccs3)c(=O)n(Cc3cccs3)c2n1 | 3.98 µM [rising, full curve]

Structure (SMILES) | AC50
Cc1cc(C)n2nc3ccccc3c2n1 | 5.01 µM [rising, partial curve]
O=C(Cc1nc2ccccc2[nH]1)NCc1ccco1 | 12.6 µM [rising, single point]
Cc1ccc(C)c(C(=O)CSc2n[nH]c(C)n2)c1 | 0.316 µM [falling, full curve]
CCNc1oc(-c2cccc3ccccc23)nc1C#N | 12.6 µM [rising, partial curve]
Cc1ccccc1N(CC(=O)NCCc1ccccc1)C(=O)c1ccc(N2CCCC2)nc1 | 0.126 µM [falling, full curve]
c1ccc(-c2nnc(N3CCOCC3)nc2-c2ccccc2)cc1 | 2.51 µM [rising, partial curve]
CC1CCN(C(=O)Cn2c(=O)n(CCc3ccccc3)c(=O)c3ccccc32)CC1 | 0.0398 µM [falling, full curve]
O=C(NCCC1=CCCCC1)NC1CCCCC1 | 0.00501 µM [falling, full curve]
CC1(C)[C@@H](O)CC[C@@]2(C)[C@H]1CC[C@]1(C)[C@H]2C(=O)C=C2[C@@H]3C[C@@](C)(C(=O)O)CC[C@]3(C)CC[C@@]21C | 31.6 µM [falling, partial curve]
COC(=O)[C@@]1(Cc2ccccc2)[C@H]2c3cc(C(=O)N4CCCC4)n(CCSCCO)c3C[C@H]2CN1C(=O)c1ccccc1 | 0.501 µM [rising, full curve, poor fit]
COc1ccc2nc(/N=C\N(C)C)sc2c1 | 0.00398 µM [falling, full curve]
CCc1nc(SCC(=O)c2cc(C)ccc2C)n[nH]1 | 1 µM [falling, full curve, poor fit]
Cc1noc(C)c1-c1cc(Nc2ccccc2)ncn1 | 6.31 µM [rising, partial curve]
CC(C)(C)c1ccc(C(=O)CSc2ncn[nH]2)cc1 | 12.6 µM [falling, single point]
CCCn1c(N)c(C(=O)CSc2nc3ccccc3n2CCC#N)c(=O)n(C)c1=O | 1.58 µM [rising, full curve]
CCCCn1c(=S)[nH]c2ncccc2c1=O | 1 µM [rising, full curve, poor fit]
O=C(Nc1ccc(N2CCCC2)c(Cl)c1)c1ccc(Br)o1 | 0.794 µM [rising, single point]
COc1cccc(-c2cc(NCc3ccccc3OC)ncn2)c1 | 10 µM [rising, partial curve]
C=CCn1cc(C(=O)NCC2CCCO2)c(=O)c2cc(S(=O)(=O)N3CCCCCC3)ccc21 (stereo unspecified) | 3.98 µM [rising, partial curve]
O=C(O)c1cc(=O)c2c(Cl)cc(Cl)cc2[nH]1 | 31.6 µM [falling, single point]
Cc1ccc(S(=O)(=O)N2CCC(C(=O)N[C@H](C(=O)NCC3CCCO3)C(C)C)CC2)cc1 (stereo partly specified) | 0.316 µM [falling, full curve, poor fit]
CCCNc1nc2c(c(=O)[nH]c(=O)n2C)n1Cc1ccc(F)cc1 | 7.94 µM [rising, partial curve]

Structure (SMILES) | AC50
Cc1cc(C)nc(N2CCCC(C(=O)Nc3ccc4nc(C)c(C)nc4c3)C2)n1 (stereo unspecified) | 7.94 µM [rising, partial curve]
COc1ccc(-c2noc(CSc3ccccc3)n2)cc1OC | 10 µM [rising, partial curve]
CCC(Sc1nccn1C)C(=O)Nc1cccc2ccccc12 (stereo unspecified) | 0.00316 µM [falling, full curve, poor fit]
Cc1nc2cnc(N3CCN(C)CC3)nc2n(Cc2ccc(F)cc2)c1=O | 6.31 µM [rising, partial curve]
CCCSc1nc2c(cnn2-c2ccc(F)cc2)c(=O)[nH]1 | 1.58 µM [rising, full curve]
Cc1nn(-c2ccccc2)c2[nH]c(=O)c(CNc3ccc(N4CCOCC4)cc3)cc12 | 12.6 µM [rising, partial curve]
Cc1cc(C)c2c(n1)nn1c(NCCCN(C)C)cc(C)nc21 | 12.6 µM [rising, single point]
CC1(C)CC(=O)C(=CN2CCN(C(=O)c3ccco3)CC2)C(=O)C1 | 25.1 µM [rising, single point]
CCOC(=O)c1c(C2CCN(C(=O)OCC)CC2)nc2ccccn12 | 3.98 µM [rising, partial curve]
CC(C)C[C@@H](CC(=O)N[C@@H](CCCN)CC(=O)N[C@@H]1CCNC[C@H]1C(=O)N[C@H](CC(=O)N[C@@H](CCC(=O)O)CC(=O)O)Cc1c[nH]c2ccccc12)NC(=O)[C@@H]1CNCC[C@H]1N | 7.94 µM [falling, full curve, poor fit]
O=C1CC(NC23CC4CC(CC(C4)C2)C3)C(=O)N1c1ccc2c(c1)OCO2 (stereo unspecified) | 0.00316 µM [falling, full curve, poor fit]
COc1ccc(CNn2c(C)nc3ccccc3c2=O)cc1 | 5.01 µM [falling, partial curve, poor fit]
O=C(Cn1cc(C(=O)c2cccs2)c2ccccc21)NCc1ccc2c(c1)OCO2 | 25.1 µM [falling, single point]
CCOC(=O)C1CCCN(C(=O)CC(C)c2ccccc2)C1 (stereo unspecified) | 1 µM [falling, partial curve]
CCCCCCCC/C=C\CCCCCCCC(=O)N(CCO)CCO | 10 µM [rising, full curve]
c1cncc(CNc2cc(-c3ccc4c(c3)OCO4)ncn2)c1 | 10 µM [rising, partial curve]
Cc1csc(C(C#N)C(=O)c2ccc(S(=O)(=O)N3CCCC3)cc2)n1 (stereo unspecified) | 2.51 µM [rising, single point]
CN(C)c1ncc2nc(-c3cc(F)cc(F)c3)c(=O)n(CCC#N)c2n1 | 10 µM [rising, partial curve]
Cc1cc(C)c2ccc(C)[n+]([O-])c2c1O | 12.6 µM [rising, single point]
Cc1ccc(C(=O)Nc2ccc3c(c2)OCO3)cc1S(=O)(=O)N1CCCC1 | 0.00316 µM [falling, partial curve, poor fit]
CC1CCCC(C(=O)OCc2ccccc2)N1 (stereo unspecified) | 7.94 µM [falling, partial curve]
Cc1ccc(C2C3=C(CC(C)(C)CC3=O)Nc3[nH]c(=S)[nH]c(=O)c32)cc1 (stereo unspecified) | 5.01 µM [rising, single point]

Rewritten in markdown: part of the list above.

| Structure (SMILES) | AC50 |
| --- | --- |
| Cc1cc(CC(C)C)n(-c2nc3ccccc3c(=O)n2OCC(=O)N(C)C)n1 | 10 µM [rising, single point] |
| Cc1cc(NCCCN2CCOCC2)n2nc(C)c(-c3ccc(F)cc3)c2n1 | 0.2 µM [falling, full curve] |
| COC(=O)c1cc(COc2ccc3ccc(=O)oc3c2)c(C)o1 | 0.00794 µM [falling, full curve, poor fit] |
| CCn1c(SCC(=O)OC)nc2sc3c(c2c1=O)CCC3 | 12.6 µM [rising, partial curve] |
| O=C(Nc1ccccc1)Nc1ccc(S(=O)(=O)N2CCCCC2)cc1 | 12.6 µM [falling, single point] |
